Data from PubChem BioAssay AID2685 (National Center for Advancing Translational Sciences (NCATS), 2010).
Hit rate of the full screen: of about 320,000 compounds, about 2,100 (0.66%) were called active. Inconclusive means that the source gave no clear call. Such entries were picked first, then a sample of the others. Calls come from the whole dose curve; as a rule, active = well fitted inhibition curve with a large enough effect in the signal ratio, with a control signal flat (not every such curve was filed as active); inconclusive = small, poorly fitted or top-dose-only effect, or effect the other way, or a change in a side signal; inactive = flat fitted curve, though single readings scatter; the % refers to the signal ratio. A potency beside an inconclusive call is a rough fit, not a confirmed value.

Experiment: qHTS Assay for Lipid Storage Modulators in Drosophila S3 Cells
Conditions: BODIPY lipid droplet fluorescence, 18-24 h, cells fed with added oleic acid; lipid storage change, negative = inhibition: at 46.1 µM (top of the series) unless noted
Method in brief: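 Laser-scanning cytometry quantifies lipid droplet accumulation (500–530 nm total intensity; droplet/cell object ratio) in oleic acid-fed (400 uM added) Drosophila S3 cells treated with a concentration series. 20 uM Triacsin C defined 100% inhibition.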
% is set by controls: 0 for no effect and ±100 for the full control effect; potency is the fitted concentration of half-maximal effect.

| Structure (SMILES) | lipid storage change, negative = inhibition | Potency | outcome |
| --- | --- | --- | --- |
| COc1cn(-c2ccccc2)nc1C(=O)NCc1ccc(C)cc1 | inconclusive: -5.27% | – | – |
| COC(=O)C(NC(C)=O)(Nc1nc(C)cs1)C(F)(F)F (stereo unspecified) | – | inconclusive: 0.0052 µM [falling, full curve, poor fit] | – |
| CC1=Nn2c(nnc2-c2cc(C)[nH]n2)SC1 | inconclusive: -3.84% | – | – |
| C/C(=N\NC(=O)c1ccc(-n2cnnn2)cc1)c1ccc(Cl)cc1 | – | inconclusive: 29.1 µM [activator, partial curve, poor fit] | – |
| O=C(OCC(=O)N1CCOCC1)c1ccccc1Br | – | inconclusive: 16.4 µM [activator, single point] | – |
| O=c1oc2ccccc2c(Cl)c1CN1CCCCC1 | – | inconclusive: 29.1 µM [falling, single point] | – |
| Cc1cn(COC/C=C/c2ccccc2)c(=O)[nH]c1=O | – | inconclusive: 18.4 µM [activator, single point] | – |
| CCOC(=O)C(=CNc1ccc(NC2=NCC(C)(C)S2)cc1)C(=O)OCC | – | inconclusive: 3.26 µM [activator, partial curve, poor fit] | – |
| COc1cccc(/C=N/Nc2nc(Nc3ccccc3)nc(-n3nc(C)cc3C)n2)c1O | – | inconclusive: 6.51 µM [rising, single point] | – |
| NC1=C(c2ccc(F)cc2)C(=O)CS1 | inconclusive: 25.3% | – | – |
| O=C(CSCc1c[nH]c(=O)[nH]c1=O)OCC(=O)c1ccc(Br)cc1 | inconclusive: -17.3% | – | – |
| CCOC(=O)N1CCN(C(=O)c2ccc(Cn3c(=S)[nH]c4cc5c(cc4c3=O)OCO5)cc2)CC1 | inconclusive: -12.7% | – | – |
| Cn1nc(C(=O)N2CCN(c3ccccc3)CC2)c2c1-c1ccccc1S(=O)(=O)C2 | inconclusive: 135% | – | – |
| COc1ccc(C(=O)Nc2cccc(C(=O)N3CCCC3)c2)cc1 | – | inconclusive: 14.6 µM [activator, partial curve] | – |
| O=C(Nc1ccc(F)c([N+](=O)[O-])c1)c1ccc2c(c1)OCCO2 | – | inconclusive: 2.31 µM [falling, single point] | – |
| COc1ccc(CNC(=O)N[C@@H](CC(C)C)C(=O)O)cc1OC | – | inconclusive: 6.51 µM [falling, single point] | – |
| O=c1ccn(-c2ccccc2)[nH]1 | inconclusive: 3.18% | – | – |
| Cc1ccc(OCC(=O)Nc2cccc(-c3nnc(-c4ccccc4)o3)c2)cc1 | inactive: -1.29% | – | – |
| Cc1cccn2cc(COc3cccc([N+](=O)[O-])c3)nc12 | inconclusive: 12.2% | – | – |
| C=CCN(c1ccc(C(=O)Nc2ccc3c(c2)n(C)c(=O)n3C)cc1)S(C)(=O)=O | – | inconclusive: 20.6 µM [falling, single point] | – |
| CC(=O)Nc1ccc(S(=O)(=O)NC(CC(=O)N(C)Cc2ccccc2)C(C)C)cc1 (stereo unspecified) | inconclusive: -25.3% | – | – |
| CCc1cc(=O)oc2c(C)c(O)c(CN(C)C)cc12 | – | inconclusive: 3.66 µM [falling, single point] | – |
| CN(C(=O)COc1ccccc1)C1CCS(=O)(=O)C1 (stereo unspecified) | inactive: -9.62% | – | – |
| Cc1ccc(C)c(S(=O)(=O)N2CCC(c3nc4c(nnn4Cc4ccc(F)cc4)c(=O)[nH]3)CC2)c1 | inconclusive: -23.2% | – | – |
| O=C(NC1CCCC1)c1ccc(COc2ccccc2Br)o1 | inconclusive: -6.83% | – | – |
| Cc1cc(Br)ccc1NC(=O)CN(C)C(=O)CSCc1ccccc1 | – | inconclusive: 6.51 µM [falling, partial curve, poor fit] | – |

| Structure (SMILES) | lipid storage change, negative = inhibition | Potency | outcome |
| --- | --- | --- | --- |
| CCc1nnc(NS(=O)(=O)c2ccc(NS(=O)(=O)c3ccccc3)cc2)s1 | inconclusive: -78.9% | – | – |
| Cc1ccccc1OCC(=O)N/N=C/c1ccc(N2CCOCC2)o1 | – | inconclusive: 29.1 µM [falling, single point] | – |
| O=C(NNC(=O)c1ccc(Oc2ccc(C3SCCS3)cc2)o1)c1ccc(Cl)cc1 | inconclusive: 20.8% | – | – |
| COc1ccccc1NC(=O)Cc1cccc2ccccc12 | inactive: -19.7% | – | – |
| CCN(CC)CCCN=Cc1c(O)n(-c2cccc(C)c2)c(=O)c2ccccc12 | inconclusive: 37.8% | – | – |
| Cc1cc(NC(=O)c2cccc3ccccc23)cc(C)c1OCC(=O)N1CCOCC1 | – | inconclusive: 16.4 µM [activator, partial curve] | – |
| COC(=O)c1ccc(OCCCCN2CC(C)OC(C)C2)cc1 (stereo unspecified) | inconclusive: 3.91% | – | – |
| Cc1ccc2c(c1)C1OCCC1C1N2C(=O)C2C(C(=O)O)C3C=CC21O3 (stereo unspecified) | inconclusive: -15.2% | – | – |
| COc1ccc(OC(C)C(=O)N2CCC(C)CC2)cc1 (stereo unspecified) | inconclusive: -3.19% | – | – |
| O=C(CN1CCN(C(=O)c2c(F)cccc2F)CC1)Nc1ccccc1C(F)(F)F | inconclusive: -67.5% | – | – |
| Cc1ccc(S(=O)(=O)NCc2ccc(N3CCN(C(=O)OC(C)(C)C)CC3)cc2)cc1 | inconclusive: 32.7% [at 0.00295 µM] | – | – |
| CCn1c(COc2cccc(C)c2)nnc1SCC(=O)NC1CCCC1 | – | inconclusive: 0.206 µM [activator, single point] | – |
| O=C1CC2CS(=O)(=O)CC2N1C1CCCCC1 (stereo unspecified) | inconclusive: 5.27% [at 9.22 µM] | – | – |
| CCCCN1CC(=O)N2[C@H]3c4ccc(OC)cc4OC[C@@H]3[C@H](c3ccccc3)[C@]2(C)C1=O | inconclusive: 21.9% | – | – |
| O=C(c1cc(-c2cccc(O)c2)on1)N1CCc2ccccc2C1 | inconclusive: 6.41% | – | – |
| N#C/C(=C/c1ccccc1[N+](=O)[O-])C(=O)NCc1ccco1 | – | inconclusive: 11.6 µM [falling, partial curve] | – |
| CC1CN(C(=O)/C(=C/c2ccco2)NC(=O)c2ccccc2)CC(C)O1 (stereo unspecified) | – | inconclusive: 9.2 µM [activator, partial curve] | – |
| Cc1ccc(S(=O)(=O)N2CCCCC2)cc1NC(=O)C1CC(=O)N(c2ccc3c(c2)OCCO3)C1 (stereo unspecified) | inconclusive | – | – |
| Cc1ccc(-n2nc3c(=S)[nH]nc(C)c3c2C)cc1 | inconclusive: 45% | – | – |
| Cc1csc(NC(=O)C2C3C=CC(O3)C2C(=O)O)n1 (stereo unspecified) | inconclusive: 17.4% | – | – |
| CC(=O)Nc1cccc(NC(=O)c2ccco2)c1 | inconclusive: 44.7% | – | – |
| O=C(NCc1ccccc1F)C1CCCN(c2cnccn2)C1 (stereo unspecified) | inconclusive: 188% | – | – |
| COc1cccc(NC(=O)CN(c2ccc([N+](=O)[O-])cc2)S(=O)(=O)c2ccccc2)c1 | – | inconclusive: 29.1 µM [activator, single point] | – |
| NS(=O)(=O)c1ccc(CCNC(=O)CCNC(=O)c2ccco2)cc1 | inconclusive: 5.13% | – | – |
| Cc1ccccc1-c1ccc(C(=O)NCc2ccccc2)o1 | – | inconclusive: 7.31 µM [activator, partial curve] | – |
| Cc1ccc(Nc2nc(Oc3ccc(OCc4ccccc4)nn3)nc(N3CCOCC3)n2)cc1 | inconclusive: 76.1% | – | – |

| Structure (SMILES) | lipid storage change, negative = inhibition | Potency | outcome |
| --- | --- | --- | --- |
| Cc1ccc(NC(=O)COC(=O)CCn2c(C)csc2=O)c([N+](=O)[O-])c1 | inconclusive | – | – |
| CCc1ccc(-c2nnn(Cc3nn[nH]n3)n2)cc1 | inconclusive: -2.82% | – | – |
| N#Cc1cccc(C(=O)OCc2cccc(S(=O)(=O)N3CCOCC3)c2)c1 | inconclusive | – | – |
| O=C(c1ccc(Br)o1)N1CCN(Cc2ccccc2Cl)CC1 | – | inconclusive: 0.259 µM [falling, full curve] | – |
| O=C(O)C1CCN(S(=O)(=O)c2cccnc2)CC1 | inconclusive: 36.8% | – | – |
| CCn1c(SCC(=O)N2CCCc3ccccc32)nnc1-c1ccco1 | inconclusive: -11.9% | – | – |
| C=CC[N+](C)(C)CCN1C(=O)C2C(c3ccccc3)C=CC(c3ccccc3)C2C1=O (stereo unspecified) | – | inconclusive: 0.517 µM [falling, full curve, poor fit] | – |
| O=C(COc1ccc(S(=O)(=O)NC2CCCCC2)cc1)N1CCN(c2ccc(F)cc2)CC1 | inconclusive: 27.1% [at 9.22 µM] | – | – |
| O=C(Nc1ccon1)C12CC3CC(C1)CC(n1cnc([N+](=O)[O-])n1)(C3)C2 | inconclusive: 16.2% | – | – |
| COCCNC(=S)N(CCCN(C)C)Cc1cc2cc3c(cc2[nH]c1=O)OCCO3 | inconclusive: 62.7% | – | – |
| O=C(O)c1cc([N+](=O)[O-])ccc1C(=O)Nc1ccccc1 | inconclusive: 3.51% | – | – |
| O=C(Nc1ccncc1)C1CCN(S(=O)(=O)c2c(Cl)cccc2Cl)CC1 | – | inconclusive: 0.92 µM [falling, partial curve, poor fit] | – |
| CCn1c(SCC(=O)N/N=C/c2c[nH]c3ccccc23)nnc1-c1ccc(C(C)(C)C)cc1 | – | inconclusive: 4.61 µM [falling, single point] | – |
| O=C(CCC(=O)N1CCN(S(=O)(=O)c2ccc3ccccc3c2)CC1)NCC(F)(F)F | inconclusive: 75.3% | – | – |
| COc1cc(/C=C2\CCC(C3CCCC3)C2=O)ccc1OC(C)C (stereo unspecified) | inconclusive: 13.5% | – | – |
| COc1ccc(CNC(=O)CSc2nc3nc(C)cc(C)n3n2)cc1 | inconclusive: 43.9% | – | – |
| Cc1cccc(/C=C2\Sc3ccc(C(=O)N4CCC(C)CC4)cc3N(C)C2=O)c1 | – | – | inactive [at 46.1 µM] |
| O=C(CCC(=O)N1CCOc2ccc(Cl)cc21)NCCCN1CCC(Cc2ccccc2)CC1 | – | inconclusive: 5.17 µM [falling, partial curve] | – |
| O=C(NCCN1CCOCC1)c1ccc(NS(=O)(=O)c2ccccc2)cc1 | inconclusive: -24.6% | – | – |
| CCc1nnc(NC(=O)CS(=O)(=O)c2ccccc2)s1 | – | inconclusive: 0.116 µM [activator, single point] | – |
| CCc1n[nH]c(=S)n1/N=C/c1ccccc1OCc1ccc(Cl)cc1 | inconclusive: -7.98% | – | – |
| O=S(=O)(NCc1ccccc1)c1ccc(Br)s1 | inconclusive: 2.32% | – | – |
| COc1cc2c(cc1OC)C(c1ccc(O)cc1)NCC2 (stereo unspecified) | – | – | inactive [at 46.1 µM] |
| O=C1Cc2ccccc2C(=O)N1CCc1ccccc1 | inconclusive: 19.2% [at 9.22 µM] | – | – |

A draw from above in order of heavy-atom count, rising:

| Structure (SMILES) | lipid storage change, negative = inhibition | Potency | outcome |
| --- | --- | --- | --- |
| CCc1nnc(NC(=O)CS(=O)(=O)c2ccccc2)s1 | – | inconclusive: 0.116 µM [activator, single point] | – |
| O=C(O)c1cc([N+](=O)[O-])ccc1C(=O)Nc1ccccc1 | inconclusive: 3.51% | – | – |
| O=C(NCCN1CCOCC1)c1ccc(NS(=O)(=O)c2ccccc2)cc1 | inconclusive: -24.6% | – | – |
| CCn1c(SCC(=O)N/N=C/c2c[nH]c3ccccc23)nnc1-c1ccc(C(C)(C)C)cc1 | – | inconclusive: 4.61 µM [falling, single point] | – |
